Measurements taken from US12729225B2, “Non-canonical SWI/SNF complex and uses thereof” (Dana-Farber Cancer Institute, Inc., priority 2018, dated 2026).

System: mSWI/SNF complexes
Assay: mSWI/SNF complex purification with HA-tagged baits and mass spectrometry (peptide counts)
Set-up: species or system human
Conditions: 293_HA-BRD7 bait purification, mass spectrometry; for Total: total peptides per co-purified protein; for Unique: unique peptides per co-purified protein

Row | Molecule | Total | Unique
1 | NOC3L (protein, UniProt Q8WTT2 1-800, looked up) Nucleolar complex protein 3 …: MKARRNKKQIPSFRKLIKTSKVKLENKLKNKQFKQQSTLKKYRKEQRKLRQAVKDAVSKKPIPLENPKEKRPGKRIEREEEEEEEALPLDMMDEDDLQLMKDLGQRVSFLTRDLSSSEPVHAKKRKHERIIDKYEKIPRTLQTAPEKELIHLLPIKDKSGIIPQTREKPVTDSNKDEEDQEEERELEEEIIEDPIQELTIEEHLIERKKKLQEKKMHIAALASAILSDPENNIKKLKELRSMLMEQDPDVAVTVRKLVIVSLMELFKDITPSYKIRPLTEAEKSTKTRKETQKLREFEEGLVSQYKFYLENLEQMVKDWKQRKLKKSNVVSLKAYKGLAEVAVKSLCELLVALPHFNFHNNIIVLIVPLMNDMSKLISEMCCEAVKKLFKQDKLGQASLGVIKVISGFVKGRNYEVRPEMLKTFLCLRIKEVEVKKDTEDINKPKKFMTFKEKRKSLSRMQRKWKKAEEKLERELREAEASESTEKKLKLHTETLNIVFVTYFRILKKAQRSPLLPAVLEGLAKFAHLINVEFFDDLLVVLHTLIESGDLSYQESLHCVQTAFHILSGQGDVLNIDPLKFYTHLYKTLFKLHAGATNEGVEIVLQCLDVMLTKRRKQVSQQRALAFIKRLCTLALHVLPNSSIGILATTRILMHTFPKTDLLLDSESQGSGVFLPELDEPEYCNAQNTALWELHALRRHYHPIVQRFAAHLIAGAPSEGSGALKPELSRRSATELFEAYSMAEMTFNPPVESSNPKIKGKFLQGDSFLNEDLNQLIKRYSSEVATESPLDFTKYLKTSLH | 3 | 3
2 | TEX10 (protein, UniProt Q9NXF1 1-929, looked up) Testis-expressed protein 10: MTKKRKRQHDFQKVKLKVGKKKPKLQNATPTNFKTKTIHLPEQLKEDGTLPTNNRKLNIKDLLSQMHHYNAGVKQSALLGLKDLLSQYPFIIDAHLSNILSEVTAVFTDKDANVRLAAVQLLQFLAPKIRAEQISPFFPLVSAHLSSAMTHITEGIQEDSLKVLDILLEQYPALITGRSSILLKNFVELISHQQLSKGLINRDRSQSWILSVNPNRRLTSQQWRLKVLVRLSKFLQALADGSSRLRESEGLQEQKENPHATSNSIFINWKEHANDQQHIQVYENGGSQPNVSSQFRLRYLVGGLSGVDEGLSSTENLKGFIEIIIPLLIECWVEAVPPQLATPVGNGIEREPLQVMQQVLNIISLLWKLSKQQDETHKLESWLRKNYLIDFKHHFMSRFPYVLKEITKHKRKEPNKSIKHCTVLSNNIDHLLLNLTLSDIMVSLANASTLQKDCSWIEMIRKFVTETLEDGSRLNSKQLNRLLGVSWRLMQIQPNREDTETLIKAVYTLYQQRGLILPVRTLLLKFFSKIYQTEELRSCRFRYRSKVLSRWLAGLPLQLAHLGSRNPELSTQLIDIIHTAAARANKELLKSLQATALRIYDPQEGAVVVLPADSQQRLVQLVYFLPSLPADLLSRLSRCCIMGRLSSSLAAMLIGILHMRSSFSGWKYSAKDWLMSDVDYFSFLFSTLTGFSKEELTWLQSLRGVPHVIQTQLSPVLLYLTDLDQFLHHWDVTEAVFHSLLVIPARSQNFDILQSAISKHLVGLTVIPDSTAGCVFGVICKLLDHTCVVSETLLPFLASCCYSLLYFLLTIEKGEAEHLRKRDKLWGVCVSILALLPRVLRLMLQSLRVNRVGPEELPVVGQLLRLLLQHAPLRTHMLTNAILVQQIIKNITTLKSGSVQEQWLTDLHYCFNVYITGHPQGPSALATVY | 3 | 3
3 | DHX37 (protein, UniProt Q8IY37 1-1157, looked up) Probable ATP-dependent RNA …: MGKLRRRYNIKGRQQAGPGPSKGPPEPPPVQLELEDKDTLKGVDASNALVLPGKKKKKTKAPPLSKKEKKPLTKKEKKVLQKILEQKEKKSQRAEMLQKLSEVQASEAEMRLFYTTSKLGTGNRMYHTKEKADEVVAPGQEKISSLSGAHRKRRRWPSAEEEEEEEEESESELEEESELDEDPAAEPAEAGVGTTVAPLPPAPAPSSQPVPAGMTVPPPPAAAPPLPRALAKPAVFIPVNRSPEMQEERLKLPILSEEQVIMEAVAEHPIVIVCGETGSGKTTQVPQFLYEAGFSSEDSIIGVTEPRRVAAVAMSQRVAKEMNLSQRVVSYQIRYEGNVTEETRIKFMTDGVLLKEIQKDFLLLRYKVVIIDEAHERSVYTDILIGLLSRIVTLRAKRNLPLKLLIMSATLRVEDFTQNPRLFAKPPPVIKVESRQFPVTVHFNKRTPLEDYSGECFRKVCKIHRMLPAGGILVFLTGQAEVHALCRRLRKAFPPSRARPQEKDDDQKDSVEEMRKFKKSRARAKKARAEVLPQINLDHYSVLPAGEGDEDREAEVDEEEGALDSDLDLDLGDGGQDGGEQPDASLPLHVLPLYSLLAPEKQAQVFKPPPEGTRLCVVATNVAETSLTIPGIKYVVDCGKVKKRYYDRVTGVSSFRVTWVSQASADQRAGRAGRTEPGHCYRLYSSAVFGDFEQFPPPEITRRPVEDLILQMKALNVEKVINFPFPTPPSVEALLAAEELLIALGALQPPQKAERVKQLQENRLSCPITALGRTMATFPVAPRYAKMLALSRQHGCLPYAITIVASMTVRELFEELDRPAASDEELTRLKSKRARVAQMKRTWAGQGASLKLGDLMVLLGAVGACEYASCTPQFCEANGLRYKAMMEIRRLRGQLTTAVNAVCPEAELFVDPKMQPPTESQVTYLRQIVTAGLGDHLARRVQSEEMLEDKWRNAYKTPLLDDPVFIHPSSVLFKELPEFVVYQEIVETTKMYMKGVSSVEVQWIPALLPSYCQFDKPLEEPAPTYCPERGRVLCHRASVFYRVGWPLPAIEVDFPEGIDRYKHFARFLLEGQVFRKLASYRSCLLSSPGTMLKTWARLQPRTESLLRALVAEKADCHEALLAAWKKNPKYLLAEYCEWLPQAMHPDIEKAWPPTTVH | 3 | 3
4 | HNRNPA3 (protein, UniProt P51991 1-378, looked up) Heterogeneous nuclear …: MEVKPPPGRPQPDSGRRRRRRGEEGHDPKEPEQLRKLFIGGLSFETTDDSLREHFEKWGTLTDCVVMRDPQTKRSRGFGFVTYSCVEEVDAAMCARPHKVDGRVVEPKRAVSREDSVKPGAHLTVKKIFVGGIKEDTEEYNLRDYFEKYGKIETIEVMEDRQSGKKRGFAFVTFDDHDTVDKIVVQKYHTINGHNCEVKKALSKQEMQSAGSQRGRGGGSGNFMGRGGNFGGGGGNFGRGGNFGGRGGYGGGGGGSRGSYGGGDGGYNGFGGDGGNYGGGPGYSSRGGYGGGGPGYGNQGGGYGGGGGYDGYNEGGNFGGGNYGGGGNYNDFGNYSGQQQSNYGPMKGGSFGGRSSGSPYGGGYGSGGGSGGYGSRRF | 3 | 3
5 | SRRM1 (protein, UniProt Q8IYB3 1-904, looked up) Serine/arginine repetitive …: MDAGFFRGTSAEQDNRFSNKQKKLLKQLKFAECLEKKVDMSKVNLEVIKPWITKRVTEILGFEDDVVIEFIFNQLEVKNPDSKMMQINLTGFLNGKNAREFMGELWPLLLSAQENIAGIPSAFLELKKEEIKQRQIEQEKLASMKKQDEDKDKRDKEEKESSREKRERSRSPRRRKSRSPSPRRRSSPVRRERKRSHSRSPRHRTKSRSPSPAPEKKEKTPELPEPSVKVKEPSVQEATSTSDILKVPKPEPIPEPKEPSPEKNSKKEKEKEKTRPRSRSRSKSRSRTRSRSPSHTRPRRRHRSRSRSYSPRRRPSPRRRPSPRRRTPPRRMPPPPRHRRSRSPVRRRRRSSASLSGSSSSSSSSRSRSPPKKPPKRTSSPPRKTRRLSPSASPPRRRHRPSPPATPPPKTRHSPTPQQSNRTRKSRVSVSPGRTSGKVTKHKGTEKRESPSPAPKPRKVELSESEEDKGGKMAAADSVQQRRQYRRQNQQSSSDSGSSSSSEDERPKRSHVKNGEVGRRRRHSPSRSASPSPRKRQKETSPRGRRRRSPSPPPTRRRRSPSPAPPPRRRRTPTPPPRRRTPSPPPRRRSPSPRRYSPPIQRRYSPSPPPKRRTASPPPPPKRRASPSPPPKRRVSHSPPPKQRSSPVTKRRSPSLSSKHRKGSSPSRSTREARSPQPNKRHSPSPRPRAPQTSSSPPPVRRGASSSPQRRQSPSPSTRPIRRVSRTPEPKKIKKAASPSPQSVRRVSSSRSVSGSPEPAAKKPPAPPSPVQSQSPSTNWSPAVPVKKAKSPTPSPSPPRNSDQEGGGKKKKKKKDKKHKKDKKHKKHKKHKKEKAVAAAAAAAVTPAAIAAATTTLAQEEPVAAPEPKKETESEAEDNLDDLEKHLREKALRSMRKAQVSPQS | 3 | 3
6 | UTP15 (protein, UniProt Q8TED0 2-518, looked up) U3 small nucleolar …: AGYKPVAIQTYPILGEKITQDTLYWNNYKTPVQIKEFGAVSKVDFSPQPPYNYAVTASSRIHIYGRYSQEPIKTFSRFKDTAYCATFRQDGRLLVAGSEDGGVQLFDISGRAPLRQFEGHTKAVHTVDFTADKYHVVSGADDYTVKLWDIPNSKEILTFKEHSDYVRCGCASKLNPDLFITGSYDHTVKMFDARTSESVLSVEHGQPVESVLLFPSGGLLVSAGGRYVKVWDMLKGGQLLVSLKNHHKTVTCLCLSSSGQRLLSGSLDRKVKVYSTTSYKVVHSFDYAASILSLALAHEDETIVVGMTNGILSVKHRKSEAKKESLPRRRRPAYRTFIKGKNYMKQRDDILINRPAKKHLELYDRDLKHFRISKALDRVLDPTCTIKTPEITVSIIKELNRRGVLANALAGRDEKEISHVLNFLIRNLSQPRFAPVLINAAEIIIDIYLPVIGQSPVVDKKFLLLQGLVEKEIDYQRELLETLGMMDMLFATMRRKEGTSVLEHTSDGFPENKKIES | 3 | 3
7 | ACTN1 (protein, UniProt P12814 1-892, looked up) Alpha-actinin-1: MDHYDSQQTNDYMQPEEDWDRDLLLDPAWEKQQRKTFTAWCNSHLRKAGTQIENIEEDFRDGLKLMLLLEVISGERLAKPERGKMRVHKISNVNKALDFIASKGVKLVSIGAEEIVDGNVKMTLGMIWTIILRFAIQDISVEETSAKEGLLLWCQRKTAPYKNVNIQNFHISWKDGLGFCALIHRHRPELIDYGKLRKDDPLTNLNTAFDVAEKYLDIPKMLDAEDIVGTARPDEKAIMTYVSSFYHAFSGAQKAETAANRICKVLAVNQENEQLMEDYEKLASDLLEWIRRTIPWLENRVPENTMHAMQQKLEDFRDYRRLHKPPKVQEKCQLEINFNTLQTKLRLSNRPAFMPSEGRMVSDINNAWGCLEQVEKGYEEWLLNEIRRLERLDHLAEKFRQKASIHEAWTDGKEAMLRQKDYETATLSEIKALLKKHEAFESDLAAHQDRVEQIAAIAQELNELDYYDSPSVNARCQKICDQWDNLGALTQKRREALERTEKLLETIDQLYLEYAKRAAPFNNWMEGAMEDLQDTFIVHTIEEIQGLTTAHEQFKATLPDADKERLAILGIHNEVSKIVQTYHVNMAGTNPYTTITPQEINGKWDHVRQLVPRRDQALTEEHARQQHNERLRKQFGAQANVIGPWIQTKMEEIGRISIEMHGTLEDQLSHLRQYEKSIVNYKPKIDQLEGDHQLIQEALIFDNKHTNYTMEHIRVGWEQLLTTIARTINEVENQILTRDAKGISQEQMNEFRASFNHFDRDHSGTLGPEEFKACLISLGYDIGNDPQGEAEFARIMSIVDPNRLGVVTFQAFIDFMSRETADTDTADQVMASFKILAGDKNYITMDELRRELPPDQAEYCIARMAPYTGPDSVPGALDYMSFSTALYGESDL | 3 | 3
